Source: patent US20220073608A1
These are yes or no findings as the source states them, for the method shown. Some binding calls cover weakened binding; strength is not graded here.

T1: human SEMA4D, full length, on CHO-K1 cells (CHO-K1 hSEMA4D) (human) (UniProt Q92854)
T1 sequence (looked up): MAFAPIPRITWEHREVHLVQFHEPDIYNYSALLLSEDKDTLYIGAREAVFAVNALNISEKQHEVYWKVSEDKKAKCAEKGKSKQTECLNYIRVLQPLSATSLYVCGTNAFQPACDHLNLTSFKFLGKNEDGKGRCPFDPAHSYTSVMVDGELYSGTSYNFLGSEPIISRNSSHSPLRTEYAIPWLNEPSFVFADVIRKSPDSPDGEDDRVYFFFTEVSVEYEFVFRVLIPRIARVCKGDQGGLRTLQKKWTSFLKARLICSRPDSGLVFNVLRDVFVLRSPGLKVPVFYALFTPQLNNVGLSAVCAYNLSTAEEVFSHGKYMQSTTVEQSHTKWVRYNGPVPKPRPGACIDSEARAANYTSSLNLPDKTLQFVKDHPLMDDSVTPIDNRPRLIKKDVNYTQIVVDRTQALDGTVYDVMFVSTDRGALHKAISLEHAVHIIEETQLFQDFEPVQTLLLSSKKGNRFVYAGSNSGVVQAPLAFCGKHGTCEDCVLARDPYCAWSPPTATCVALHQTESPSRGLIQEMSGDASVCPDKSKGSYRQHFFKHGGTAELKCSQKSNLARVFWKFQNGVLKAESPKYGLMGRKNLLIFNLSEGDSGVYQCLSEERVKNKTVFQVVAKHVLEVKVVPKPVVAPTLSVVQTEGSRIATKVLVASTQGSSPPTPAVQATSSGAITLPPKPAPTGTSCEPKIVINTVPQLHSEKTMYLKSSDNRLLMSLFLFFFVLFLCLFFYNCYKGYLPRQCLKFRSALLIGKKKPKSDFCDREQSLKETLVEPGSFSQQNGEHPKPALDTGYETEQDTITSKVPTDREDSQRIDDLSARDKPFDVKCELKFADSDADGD

T2: mouse SEMA4D, full length, on CHO-K1 cells (CHO-K1 mSEMA4D) (mouse) (UniProt O09126)
T2 sequence (looked up): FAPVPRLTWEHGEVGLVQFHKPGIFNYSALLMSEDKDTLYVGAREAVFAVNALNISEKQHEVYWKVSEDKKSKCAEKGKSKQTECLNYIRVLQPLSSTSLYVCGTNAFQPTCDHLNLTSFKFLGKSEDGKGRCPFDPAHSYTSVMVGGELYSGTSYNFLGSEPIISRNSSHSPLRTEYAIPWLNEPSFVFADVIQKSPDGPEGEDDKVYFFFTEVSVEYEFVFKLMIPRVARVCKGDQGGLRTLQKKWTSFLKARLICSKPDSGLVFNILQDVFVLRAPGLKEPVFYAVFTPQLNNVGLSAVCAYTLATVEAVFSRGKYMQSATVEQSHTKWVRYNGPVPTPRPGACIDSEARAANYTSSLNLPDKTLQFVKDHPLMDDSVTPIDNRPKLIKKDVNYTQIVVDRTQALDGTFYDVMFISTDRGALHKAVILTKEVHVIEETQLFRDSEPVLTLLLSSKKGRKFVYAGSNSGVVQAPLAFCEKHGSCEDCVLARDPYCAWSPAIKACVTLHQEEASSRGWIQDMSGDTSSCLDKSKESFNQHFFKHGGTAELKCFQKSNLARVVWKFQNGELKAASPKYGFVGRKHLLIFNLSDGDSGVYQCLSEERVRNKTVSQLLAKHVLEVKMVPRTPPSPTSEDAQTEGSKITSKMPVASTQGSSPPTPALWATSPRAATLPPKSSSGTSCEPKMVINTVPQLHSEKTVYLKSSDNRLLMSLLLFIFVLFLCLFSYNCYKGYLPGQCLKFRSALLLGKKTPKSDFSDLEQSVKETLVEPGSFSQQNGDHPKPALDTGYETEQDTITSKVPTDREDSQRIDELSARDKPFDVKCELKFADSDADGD


Legend:
[1] = target: T1, human SEMA4D, full length, on CHO-K1 cells (CHO-K1 hSEMA4D) (human); experiment: FACS, CHO-K1 hSEMA4D cells
[2] = target: T2, mouse SEMA4D, full length, on CHO-K1 cells (CHO-K1 mSEMA4D) (mouse); experiment: FACS, CHO-K1 mSEMA4D cells

Row | Binder | binding [1] | binding [2]
1 | 31G10C5 (antibody, V domains shown) VH: EVQLQQSGAELVRPGASVKLSCTASGFNIKDDYIHWVKQRPEQGLEWIGWIDPANGHIEYASNFQAKATITADTSSNTAYLQLSSLTSEDTAVYYCTTGDYDGFTYWGQGTLVTVST VL: QIVLTQSPAIMSASPGEKVTISCSARSSVSYMYWYQQKPGSSPKPWIYRTSNLASGVPARFSGSGSGTSYSLTISSMEAEDAATYYCQHYHTYPYTFGGGTKLEIK | binds | –
2 | 32C8F10 (antibody, V domains shown) VH: EVQLQQSGAELVRPGASVKLSCTASGFNIKDEYIHWVKQRPEQGLEWIGWIDPANGHTEYASRFQAKATITADTSSNTAYLQLSSLTSEDTAVYYCTTGDYDGFAYWGQGTLVTVST VL: QIVLTQSPAIMSASPGEKVTISCSARSSVSYMYWYQQKPGSSPKPWIYRTSNLASGVPARFSGSGSGTSYSLTISSMEAEDAATYYCQHYHTYPYTFGGGTKLEIK | binds | –
3 | 37C4F7 (antibody, V domains shown) VH: EFQLQQSGPEVVKPGASVKISCKASGYSFTDYNMNWMKQSKGKSLEWIGVINPNYGTTTYNQNFKGKATLTVDQSSSTAYMQLNSLTSEDSAVYYCARDMYYVYAYYTMDYWGQGTSVTVSS VL: DVVMTQTPLSLPVSLGDQASISCRSSQSLVHSNGHTYLHWYLQRPGQSPTLLIYKVSNRFSGVPDRFSGSGSGTDFTLKISRVEAEDLGVYFCSQGTHVPWTFGGGTKLEIK | binds | –
4 | 37F11F9 (antibody, V domains shown) VH: EVQLQQSGPVLVKPGASVKMSCKASGYTFTDYYMNWVKQSHGKSLEWIGLINPYSGGSTFNQKFKAKATLTVDKSSSSAYMDLNSLTSEDSAVYYCARVGDGYYGVTHGMDYWGQGTSVTVSS VL: DIVMTPSQKFMSTTVGDRVSITCKASQNVGTAVAWYQQKPGQSPTILIYSASNRYTGVPDRFTGSGSGTDFTLTISNMKSEDLADYFCQQYYIYPFTFAAGTKLELK | binds | –
5 | 38H2E3 (antibody, V domains shown) VH: EFQLQQSGPEVVKPGASVKISCKASGYSFTDYNMNWMKQSKGKSLEWIGVISPDYGTTTYNQNFKDKATLTVDQSSSTAYMQLNSLTSEDSAVYYCAKDMYYVYAYYTMDYWGHGTSVTVSS VL: DVVMTQTPLSLPVSLGDQASISCRSSQSLVHSNGHTYLHWYLQRPGQSPTLLIYKVSNRFSGVPDRVSGSGSGTDFTLKISRVEAEDLGVYFCSQGTHVPRTFGGGTKLEIK | binds | –
6 | 42B7G2 (antibody, V domains shown) VH: QVQLQQSGAELARPGASVKLSCKASGYTFTDYGISWVKQRTGQGLEWIGEIYLRNDNSYYNEKFKGKATLTADKSSNTAYMELRSLTSEDSAVYFCARWGDHGNNYEDAMDYWGQGTSVTVSS VL: DIVLTQSPASLAMSLGKRATISCRASESVSIIGSNLIHWYQQKPGQPPKLLIYHASNLETGVPARFSGSGSRTDFTLTIDPVEEDDVAIYYCLQSRKVPYTFGGGTKLEIK | binds | –
7 | 31C11G2 (antibody, V domains shown) VH: EVQLQQSGAELVRPGASVKLSCTASGFNIKDEYIHWVKQRPEQGLEWIGWIDPANGHTEYASRFQAKATITADTSSNTAYLQLSSLTSEDTAVYYCTTGDYDGFVYWGQGTLVTVST VL: QIVLTQSPAIMSASPGEKVTIFCSARSSVSYMYWYQQKPGSSPKPWIYRTSNLASGVPARFSGSGSGTSYSLTISSMEAEDAATYYCQHYHTYPYTFGGGTKLEIK | binds | –
8 | 2D5 (antibody, human IgG4, V domains shown) VH: QVTLKESGPTLVKPTQTLTLACSFSGFSLTTTGVAVTWIRQPPGKALEWLALIDWDDDKYYSTSLKTRLTISKDTSKNQVVLTMTNMDPVDTATYYCARIASGDSGGYFADWGQGTLVTVSS VL: SSELTQAPSVSVSPGQTASITCSGDKLDDKYVYWYQQKPGQPPVLVIYRDNKRPSGIPERFSGSNSGNTATLTISATQALDEADYYCQAWESSSDQYVFGTGTKVTVL | binds | binds
9 | 5D8 (antibody, human IgG4, V domains shown) VH: QVQLQESGAGLLKPSETLSLTCAVYGGSFSGYYWSWIRQPPGKGLEWIGEINHSGSTNYNPSLKSRVTISVDTSKNQFSLKLSSVTAADTAVYYCARTRYYGSGSWSLFDYWGQGTLVTVSS VL: QPVLTQPPSASGAPGQTVTISCSGGNSNVGTNTVNWYQQLPGTAPKLLIYYDDLLASGVSDRFSGSKSGTSASLAISGLQAEEEADYYCAAWDDTLNGWVFGGGTKLTVL | binds | binds
